Results are given in words; binding and its absence hold for the method and conditions named. In cells and extracts the contact can be indirect. Some entries that bind do so weakly or less than the wild type.
Columns and labels:
Experiment in all cases: co-IP
V5-tagged p50 = V5-tagged p50 (UniProt P19838)
[1] = biological target: p50 (human (endogenous in HEK-293T and HeLa)) (UniProt P19838)
FLAG-tagged RelA (human) = FLAG-tagged RelA (human) (UniProt Q04206)

Amino acid sequences for entries named in this document (tags omitted). A change or cut given only in a name is not applied to a line headed by its entry.
UniProt P19838: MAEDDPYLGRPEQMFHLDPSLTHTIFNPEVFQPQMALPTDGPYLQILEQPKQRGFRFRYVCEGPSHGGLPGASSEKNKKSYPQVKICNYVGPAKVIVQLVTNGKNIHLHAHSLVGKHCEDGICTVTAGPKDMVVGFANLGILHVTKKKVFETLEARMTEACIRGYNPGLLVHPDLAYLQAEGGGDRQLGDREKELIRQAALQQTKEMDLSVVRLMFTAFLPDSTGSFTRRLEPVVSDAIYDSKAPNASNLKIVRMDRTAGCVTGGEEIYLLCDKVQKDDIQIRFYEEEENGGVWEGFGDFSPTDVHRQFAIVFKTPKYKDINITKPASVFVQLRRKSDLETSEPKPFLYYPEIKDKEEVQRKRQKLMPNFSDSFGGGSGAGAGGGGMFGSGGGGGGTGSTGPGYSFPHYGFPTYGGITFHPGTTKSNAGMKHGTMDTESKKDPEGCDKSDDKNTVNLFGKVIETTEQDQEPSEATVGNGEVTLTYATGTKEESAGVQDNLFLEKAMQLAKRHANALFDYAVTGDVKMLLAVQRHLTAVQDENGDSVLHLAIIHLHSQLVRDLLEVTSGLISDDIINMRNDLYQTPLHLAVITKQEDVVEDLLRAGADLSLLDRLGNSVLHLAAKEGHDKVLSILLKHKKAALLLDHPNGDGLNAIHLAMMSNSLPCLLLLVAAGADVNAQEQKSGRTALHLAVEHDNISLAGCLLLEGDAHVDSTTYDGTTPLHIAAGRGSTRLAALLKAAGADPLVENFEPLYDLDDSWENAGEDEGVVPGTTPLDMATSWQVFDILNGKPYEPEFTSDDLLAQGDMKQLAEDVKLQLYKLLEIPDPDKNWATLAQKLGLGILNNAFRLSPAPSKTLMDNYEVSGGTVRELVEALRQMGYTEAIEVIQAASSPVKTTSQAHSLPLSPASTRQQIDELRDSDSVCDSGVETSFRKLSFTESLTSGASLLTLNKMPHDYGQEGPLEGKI
UniProt Q04206: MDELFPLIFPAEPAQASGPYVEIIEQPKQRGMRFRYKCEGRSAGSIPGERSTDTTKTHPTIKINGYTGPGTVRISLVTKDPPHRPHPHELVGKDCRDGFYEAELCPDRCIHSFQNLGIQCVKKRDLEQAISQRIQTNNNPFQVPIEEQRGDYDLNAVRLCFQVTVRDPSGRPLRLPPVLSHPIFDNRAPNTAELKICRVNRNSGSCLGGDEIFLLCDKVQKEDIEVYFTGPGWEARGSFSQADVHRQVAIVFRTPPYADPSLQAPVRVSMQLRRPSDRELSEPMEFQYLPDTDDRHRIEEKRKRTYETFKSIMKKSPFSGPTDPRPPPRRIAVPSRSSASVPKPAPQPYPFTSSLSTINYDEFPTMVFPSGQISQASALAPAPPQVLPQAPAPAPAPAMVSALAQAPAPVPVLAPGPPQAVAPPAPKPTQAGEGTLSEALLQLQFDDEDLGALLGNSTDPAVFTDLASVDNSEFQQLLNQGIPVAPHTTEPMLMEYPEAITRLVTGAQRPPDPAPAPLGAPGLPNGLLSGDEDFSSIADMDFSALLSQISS

Row | binding (FLAG-tagged RelA (human)) | Substance | other results
1 |  | FLAG-tagged RelA (from UniProt Q04206-1 1-551) | binding (V5-tagged p50): binds
2 |  | RelA (endogenous) (from UniProt Q04206-1 1-551) | binding [1]: binds
3 | binds | p50 (from UniProt P19838 1-433) | 
4 | binds | p105 (from UniProt P19838 1-968) | 
